Measurements as given in patent US20230372552A1, “CONJUGATE OR ITS SALT COMPRISING A GASTRIN-RELEASING PEPTIDE RECEPTOR ANTAGONIST AND USES THEREOF” (ORANO MED, priority 2020, published 2023).
Part of at least one peptide drawing is inferred or uncertain, most often the ends. At least one structure is not confirmed: it was looked up by name or label, or the drawing left a doubt.

Tested on: subcutaneous PC-3 tumors
Experiment: ^212Pb-conjugate efficacy study in xenograft-bearing mice
Type: in vivo, athymic nude mice
Conditions: 3 cycles at intervals of 14 days; ≈10 μCi per dose i.v.; control 7.9 weeks

## CC(C)C[C@H](NC(=O)C[C@H](O)[C@H](CC(C)C)NC(=O)[C@H](Cc1c[nH]cn1)NC(=O)CNC(=O)[C@@H](NC(=O)[C@H](C)NC(=O)[C@H](Cc1c[nH]c2ccccc12)NC(=O)[C@H](CCC(N)=O)NC(=O)[C@@H](Cc1ccccc1)NC(=O)CCNC(=O)CCNC(=O)CN1CCN(CC(N)=O)CCN(CC(N)=O)CCN(CC(N)=O)CC1)C(C)C)C(N)=O [^212Pb-conjugate, metal not drawn]
  mean survival time: 13.9 weeks
